Values quoted from earlier work as cited in patent publication US12569170B2, “Paramagnetic sodium NMR macrocyclic-based biosensors, and associated methods” (Yale University, priority 2021, dated 2026).
At least one compound was matched to its structure with a doubt left.

System: U87 and U251 cells
Settings: U87 versus U251 cells; cited from earlier work

For `Cn1nnc2c(C(N)=O)ncn2c1=O` [TMZ], the “50% inhibition concentration (IC^50)” value is given as “comparable”.
